{
  "sequences": {"note": "The chains behind the UniProt entries cited, without tags or fusion partners. Where a name states a change or a piece, a line headed by the entry shows the natural chain unless it says otherwise.", "UniProt Q01638": "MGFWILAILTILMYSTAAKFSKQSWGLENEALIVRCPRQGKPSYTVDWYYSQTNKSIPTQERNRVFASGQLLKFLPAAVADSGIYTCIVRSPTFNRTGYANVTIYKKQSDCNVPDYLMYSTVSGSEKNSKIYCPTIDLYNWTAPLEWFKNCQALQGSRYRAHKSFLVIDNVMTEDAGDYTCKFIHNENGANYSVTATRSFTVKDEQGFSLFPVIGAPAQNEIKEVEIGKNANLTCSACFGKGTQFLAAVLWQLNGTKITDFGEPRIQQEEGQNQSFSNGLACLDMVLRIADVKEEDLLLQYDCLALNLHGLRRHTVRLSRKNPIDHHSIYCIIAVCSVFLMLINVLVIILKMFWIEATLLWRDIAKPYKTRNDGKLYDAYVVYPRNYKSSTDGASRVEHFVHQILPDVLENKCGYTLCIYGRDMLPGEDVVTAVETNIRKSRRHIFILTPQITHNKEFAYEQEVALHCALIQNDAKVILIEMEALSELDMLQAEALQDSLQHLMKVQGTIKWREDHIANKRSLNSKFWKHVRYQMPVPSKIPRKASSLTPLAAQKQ"},
  "source": "PubChem BioAssay AID1259354",
  "about": "(Paczesny and Yang Labs, IUPUI and University of Michigan, 2018)",
  "note": "About 1,800 (2.3%) of roughly 78,000 compounds were called active. Inconclusive means that the source gave no clear call. Such entries were picked first, then a sample of the others. Cut-off read from the data, not from the text of the source: active = inhibition above about 30%; inconclusive = mostly about 10% to 28%; inactive = weaker than that.",
  "data": [
    {"target": "Interleukin-1 receptor-like 1 (Homo sapiens) (UniProt Q01638)", "assay": "blocks human ST2 binding to IL-33, primary screen, biochemical, AlphaLISA (AID 1259354)", "conditions": "AlphaLISA ST2-Fc/biotin-IL-33 interaction, 1 h; at 17 µM, hits give high values", "values": [
      {"compound": "O=c1[nH]nc(SCc2cccc(Cl)c2)c(=O)[nH]1", "inhibition": "inactive"},
      {"compound": "COc1cccc(NC(=O)N[C@H]2C[C@@H](c3nc(-c4ccccc4)no3)N(C)C2)c1", "inhibition": "inactive"},
      {"compound": "C=CCS(=O)(=O)NCC1CCN(Cc2cccc3nonc23)C1", "note": "(configuration not stated)", "inhibition": "inconclusive: 19%"},
      {"compound": "O=C1OC(c2ccccc2)=N/C1=C\\N1CCCCC1", "inhibition": "inconclusive: 27%"},
      {"compound": "O=C(CC1COCCN1)N1CC=C(c2ccc(F)cc2)CC1", "note": "(configuration not stated)", "inhibition": "inconclusive: 11%"},
      {"compound": "O=C(O)c1cc(NC(=O)c2ccc(N3C(=O)C4C5C=CC(C5)C4C3=O)cc2)cc(C(=O)O)c1", "note": "(configuration not stated)", "inhibition": "inactive"},
      {"compound": "CC1(C)CC(=O)c2cc(OCC(=O)NC3CC3)ccc2O1", "inhibition": "inactive"},
      {"compound": "Cn1c(C(=O)NCc2ccccc2)cc2c(=O)n3ccccc3nc21", "inhibition": "inactive"},
      {"compound": "COc1ccc(N(C)S(=O)(=O)c2cccc3nonc23)cc1", "inhibition": "inactive"},
      {"compound": "COc1ccccc1CN(Cc1cccc(C)c1)C(=O)CC1CCC(=O)N1", "note": "(configuration not stated)", "inhibition": "inconclusive: 19%"},
      {"compound": "CC(C)SCC(=O)N1CC[C@@H](c2ccc3c(c2)OCO3)[C@H](O)C1", "inhibition": "inconclusive: 17%"},
      {"compound": "Cc1c(NC(=O)C2CC2)cccc1[N+](=O)[O-]", "inhibition": "inactive"},
      {"compound": "CC1CC(C)CN(S(=O)(=O)c2cc(Br)cc3c2N(C(=O)C2CC2)CC3)C1", "note": "(configuration not stated)", "inhibition": "inconclusive: 10%"},
      {"compound": "OC1(C(F)(F)F)CC(c2ccc(Cl)cc2)=NO1", "note": "(configuration not stated)", "inhibition": "inactive"},
      {"compound": "c1ccc(Oc2ccc(-n3nnnc3N3CC(c4ccncc4)C3)cc2)cc1", "inhibition": "inactive"},
      {"compound": "COc1ncnc(OCCO)c1[N+](=O)[O-]", "inhibition": "inconclusive: 18%"},
      {"compound": "CC(C)Cc1ccc(S(=O)(=O)Nc2ccc(Br)cc2)cc1", "inhibition": "inconclusive: 10%"},
      {"compound": "C[C@@H]1CN(C(=O)c2nc3sccn3c2CN2CCN(c3ncccn3)CC2)C[C@H](C)O1", "inhibition": "inconclusive: 21%"},
      {"compound": "Fc1ccc(CN2CC[C@H](c3nnc(-c4ccc(Cl)cc4)o3)C2)cc1", "inhibition": "inconclusive: 22%"},
      {"compound": "Cc1ccc(C)c(Cn2c(=O)n(CCCC(=O)NCc3ccco3)c(=O)c3sccc32)c1", "inhibition": "inconclusive: 14%"},
      {"compound": "O=C1Nc2ccccc2C(=O)N2CC[C@H](NS(=O)(=O)c3cccs3)[C@@H]12", "inhibition": "inconclusive: 13%"},
      {"compound": "CCOc1ccc(N=Cc2cc(Br)c(OC)cc2OC)cc1", "inhibition": "inconclusive: 14%"},
      {"compound": "Cn1c(=O)cc(SCC(=O)NCCN2CCN(c3cccc(Cl)c3)CC2)c2ccccc21", "inhibition": "inactive"},
      {"compound": "COc1ccc(CC2CN(S(=O)(=O)N3CCCC3)CCO2)cc1", "note": "(configuration not stated)", "inhibition": "inconclusive: 13%"},
      {"compound": "CCOC(=O)c1[nH]c(C)c(C(=O)N2CCCC(N3CCN(c4ccccc4)CC3)C2)c1C", "note": "(configuration not stated)", "inhibition": "inactive"},
      {"compound": "C=C(C)COc1cccc(C(=O)N2CCCn3cncc3C2)c1", "inhibition": "inconclusive: 15%"},
      {"compound": "Cc1ccc(N=Cc2c(Nc3ccccc3)nc3c(C)cccn3c2=O)cc1", "inhibition": "inactive"}
    ]}
  ]
}
